For at least one compound, name, drawing or mass did not settle the structure. Some of these results come from one statement about several compounds together.
Assays:
[1] = system: break light A; test: Molecular break light assay: cleavage of break light A by enediynes and Fe^+2-dependent agents; type: biochemical; settings: [molecular break light A] = 3.2 nM
Method: Samples were analyzed with a FluoroMax-2 spectrofluorometer equipped with DataMax for Windows (Instruments S. A., Inc.; Edison, N.J.) and the temperature controlled (30° C., unless otherwise noted) by a Haake Circulator DC10. All samples were filtered prior to analysis and analyzed via a timebase scan (λex=485 nm, λEm=517 nm) in a Suprasil quartz cuvette (10 mm path) fitted with a magnetic stirring bar in a total volume of 2 mL. […] Total cleavage of the labeled oligonucleotide, confirmed by polyacrylamide gel electrophoresis (PAGE), was defined as the maximum fluorescence emission possible under saturated cleaving conditions. Emission units were converted to the amount of labeled oligonucleotide used within a procedure, thereby equating labeled oligonucleotide degradation as a function of the emission of fluorescence.
Enediyne antibiotics calicheamicin and esperamicin at varying concentrations (0.31, 0.78, 1.6, 3.2, 15.9, and 31.7 nM) were incubated in 40 mM Tris-HCl (pH 7.5) with 3.2 nM of the calicheamicin-specific labeled molecular break light oligonucleotide (A). DNA cleavage was initiated with the addition of 1 μL 100 mM dithiothreitol (“DTT”) to produce a final concentration of 50 μM DTT, and the reaction was monitored over 10 minutes via spectrofluorometry. […]
The reaction was initiated by the addition of 65 mM Fe(II) and monitored over 5 minutes. […]

[2] = cited from earlier work

CCN[C@H]1CO[C@@H](O[C@H]2[C@H](O[C@H]3C#C/C=C/C#C[C@@]4(O)CC(=O)C(NC(=O)OC)=C3/C4=C\CSSSC)O[C@H](C)[C@@H](NO[C@H]3C[C@H](O)[C@H](SC(=O)c4c(C)c(I)c(O[C@@H]5O[C@@H](C)[C@H](O)[C@@H](OC)[C@H]5O)c(OC)c4OC)[C@@H](C)O3)[C@@H]2O)C[C@@H]1OC [Calicheamicinγ1^l, calicheamicin γ1^I]
agent concentration at maximum turnover (Vapp/[cleavage agent]) [1]: 0.78 to 1.6 nM | potency relative to adriamycin [2]: over 1000 times

esperamicin A1
agent concentration at maximum turnover (Vapp/[cleavage agent]) [1]: 0.78 to 1.6 nM

Source: US20020187484A1, “Molecular break lights probes for detecting nucleotide cleavage” (priority 2000, published 2002)
